These are yes or no findings as the source states them, for the method shown. Some results given as binding are weak or reduced against the parent protein; the word gives no strength.
Biological target: T1, Rsph3b (mouse) (UniProt Q9DA80)
T1 sequence: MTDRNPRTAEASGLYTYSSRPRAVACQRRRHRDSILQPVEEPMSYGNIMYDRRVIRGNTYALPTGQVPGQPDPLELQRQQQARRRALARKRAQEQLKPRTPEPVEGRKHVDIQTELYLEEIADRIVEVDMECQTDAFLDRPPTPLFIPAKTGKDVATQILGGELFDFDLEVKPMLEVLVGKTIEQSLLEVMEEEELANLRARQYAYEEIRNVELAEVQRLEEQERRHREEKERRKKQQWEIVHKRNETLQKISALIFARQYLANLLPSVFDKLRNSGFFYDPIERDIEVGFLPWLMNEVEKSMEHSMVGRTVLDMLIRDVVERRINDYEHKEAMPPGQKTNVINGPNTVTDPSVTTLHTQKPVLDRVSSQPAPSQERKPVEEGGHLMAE
Assay: cryo-EM structure

By UniProt entry, the sequences of proteins in these tests, tags left out.
UniProt Q9D9T0: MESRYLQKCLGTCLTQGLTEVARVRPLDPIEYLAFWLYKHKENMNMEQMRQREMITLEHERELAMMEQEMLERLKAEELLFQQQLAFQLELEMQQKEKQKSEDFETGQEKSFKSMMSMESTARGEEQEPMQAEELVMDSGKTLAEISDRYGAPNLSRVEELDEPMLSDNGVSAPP

binding: binds
Substance: Rsph2 (from UniProt Q9D9T0 1-175)
